Results are given in words; binding and its absence hold for the method and conditions named. Binding seen in cells or lysates may run through a third protein. Some results given as binding are weak or reduced against the parent protein; the word gives no strength.
Assays:
[1] = molecular target: GFP-ZNF213 full length (UniProt O14771); test: co-IP; HEK293 cells transfected with GFP-ZNF213 (full length or deletion domains) and ER alpha plasmid (full length or deletion domains); lysates pre-cleared with IgG, immunoprecipitated with GFP antibody, western blot; rabbit IgG as negative control
[2] = molecular target: Estrogen receptor alpha (endogenous, MCF-7) (human (endogenous in MCF-7)) (UniProt P03372); test: co-IP; endogenous proteins; MCF-7 total cell lysate (RIPA lysis buffer) pre-cleared with rabbit IgG, immunoprecipitated with ER alpha antibody overnight, blotted with anti-ZNF213; rabbit IgG as negative control

Protein sequences, listed by entry. Tags and fused reporters are not part of them.
UniProt O14771: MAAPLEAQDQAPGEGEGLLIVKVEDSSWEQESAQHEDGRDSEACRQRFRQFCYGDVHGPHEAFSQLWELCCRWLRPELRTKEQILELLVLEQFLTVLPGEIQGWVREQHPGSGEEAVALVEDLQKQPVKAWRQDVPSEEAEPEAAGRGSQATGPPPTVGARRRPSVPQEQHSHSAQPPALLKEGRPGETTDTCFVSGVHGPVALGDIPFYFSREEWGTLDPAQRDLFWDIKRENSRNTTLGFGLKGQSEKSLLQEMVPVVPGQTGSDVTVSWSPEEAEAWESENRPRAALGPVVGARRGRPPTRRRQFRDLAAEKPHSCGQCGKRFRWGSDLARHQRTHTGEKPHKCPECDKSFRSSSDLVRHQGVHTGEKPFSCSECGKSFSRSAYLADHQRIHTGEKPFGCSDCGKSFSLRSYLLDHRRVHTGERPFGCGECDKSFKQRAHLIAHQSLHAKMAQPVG
UniProt P03372: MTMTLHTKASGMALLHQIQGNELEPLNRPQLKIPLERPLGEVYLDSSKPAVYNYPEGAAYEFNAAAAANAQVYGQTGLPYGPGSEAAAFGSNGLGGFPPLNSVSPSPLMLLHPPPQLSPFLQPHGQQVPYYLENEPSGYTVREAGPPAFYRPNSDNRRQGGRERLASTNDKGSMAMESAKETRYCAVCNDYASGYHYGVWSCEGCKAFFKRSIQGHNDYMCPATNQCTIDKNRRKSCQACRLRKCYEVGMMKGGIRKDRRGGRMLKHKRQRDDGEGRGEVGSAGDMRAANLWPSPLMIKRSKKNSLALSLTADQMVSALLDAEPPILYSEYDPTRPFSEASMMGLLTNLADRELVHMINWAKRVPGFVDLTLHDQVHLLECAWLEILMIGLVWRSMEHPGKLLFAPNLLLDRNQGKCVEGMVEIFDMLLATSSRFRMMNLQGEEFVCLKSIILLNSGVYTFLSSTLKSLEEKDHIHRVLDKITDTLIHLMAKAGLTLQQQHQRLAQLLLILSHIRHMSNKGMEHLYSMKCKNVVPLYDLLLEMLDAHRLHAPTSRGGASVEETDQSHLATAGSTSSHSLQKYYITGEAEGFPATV

Substance	binding [1]	binding [2]
ER alpha full length (transfected) (from UniProt P03372 1-595)	binds	–
Zinc finger protein 213 (endogenous, MCF-7) (from UniProt O14771 1-459)	–	binds

From paper PMC7987952
